Earlier results as cited in patent US20070014776A1, “Identification of adiponutrin-related proteins as esterases and methods of use for the same” (priority 2005, published 2007).
At least one structure is not confirmed: it was looked up by name or label, or the drawing left a doubt.

System: adiponutrin mRNA
Conditions: Polson and Thompson (2003) Horm. Metab. Res. 35:508-10; cited from earlier work

## Cc1c(C)c2c(c(C)c1O)CCC(C)(COc1ccc(CC3SC(=O)NC3=O)cc1)O2 (stereo not shown) [troglitazone]
  adiponutrin mRNA expression: modulate
